PubChem BioAssay AID652259 – Drosophila RNAi Screening Center, 2013
Purpose: 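Knock-downs that push a Wingless-driven reporter up or down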 (primary screen). System: Drosophila clone 8 imaginal disc epithelial cells. Reagent: long dsRNA against Drosophila genes. Challenge: pathway stimulated by co-transfected Wingless expression plasmid. Measured: 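Dual luciferase reads per well after Wingless plasmid stimulation: reporter firefly light and Renilla control light; activity is firefly divided by Renilla, a ratio not deposited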. Direction: firefly reporter light: higher = more Wg reporter light, before normalisation; Renilla control light: higher = more transfected or surviving cells. Hit rule: 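Strong candidates differ from their plate mean by at least two out of four per-plate statistical tests; weak candidates meet just one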. Calls: active = candidate regulator (raises or lowers reporter); inactive = not a candidate.
In all, the deposit lists about 22,000 reagents; shown is an unselected part of those with a known target gene and a result. Over the whole deposit, 233 (1.1%) got an active call. 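Light values are raw, unnormalised plate reads; the ratio scores behind the reporter calls were not deposited.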 A number with no mark means an inactive call. The numbers tell different reagents against one gene apart. Not given: the amount of reagent, the time to read-out, the dose of the treatment.

gene	dsRNA no.	reporter change call, replicate 1	firefly reporter light, replicate 1	firefly reporter light, replicate 2	Renilla control light, replicate 1	Renilla control light, replicate 2
CG15345 (retired record)	1		23635	6.46e5	14000	3.29e5
CG15345 (retired record)	2		4.99e5	5.14e5	1.78e5	1.96e5
AttA	1		10450		4056	
tex	1		13510		3884	
lncRNA:CR42862	1		14229		4358	
CG18536	1		6358		2578	
CG12341	1		3925	7017	972	3179
CG15059	1		21014		14512	
ebd1	1		13793		5194	
CG9215	1		23056		8951	
TotF	1		2292	10450	128	4448
tbrd-2	1		3325		1504	
TwdlO	1		8405		4593	
ergic53	1		1257	7152	1264	3527
Phm	1		13915		4220	
Gnpnat	1		3962	8444	1570	3024
mah	1		26332		19313	
ATP8B	1		3097		835	
ATP8B	2		15418		4937	
Antp	1	Wg reporter activity raised (active)	13346		1011	
CG15362	1		4119	6359	1520	2992
Ir92a	1		18533		3449	
NimC4	1		2393	6569	1282	2951
CG30154	1		22528		12372	
Mgat1	1		5210		2197	
Ran	1		24247		5760	
pygo	1	Wg reporter activity lowered (active)	998	2117	1193	2119
htk	1		16244		7176	
htk	2		2678	14502	1212	3564

2 entries from above in another layout:
| gene | dsRNA no. | reporter change call, replicate 1 | firefly reporter light, replicate 1 | firefly reporter light, replicate 2 | Renilla control light, replicate 1 | Renilla control light, replicate 2 |
| --- | --- | --- | --- | --- | --- | --- |
| Ran | 1 | – | 24247 | – | 5760 | – |
| pygo | 1 | Wg reporter activity lowered (active) | 998 | 2117 | 1193 | 2119 |
